Assay results as given in article PMC8973010.
These are yes or no findings as the source states them, for the method shown. In cells and extracts the contact can be indirect. A yes stands for co-enrichment or nearness to the bait. Other partners may have been found. Where a sequence is shown, tags or fusion partners need not be part of it.

Amino acid sequences for entries named in this document (tags omitted). Residues count along the entry.
UniProt Q9NYJ7, residues 27-618: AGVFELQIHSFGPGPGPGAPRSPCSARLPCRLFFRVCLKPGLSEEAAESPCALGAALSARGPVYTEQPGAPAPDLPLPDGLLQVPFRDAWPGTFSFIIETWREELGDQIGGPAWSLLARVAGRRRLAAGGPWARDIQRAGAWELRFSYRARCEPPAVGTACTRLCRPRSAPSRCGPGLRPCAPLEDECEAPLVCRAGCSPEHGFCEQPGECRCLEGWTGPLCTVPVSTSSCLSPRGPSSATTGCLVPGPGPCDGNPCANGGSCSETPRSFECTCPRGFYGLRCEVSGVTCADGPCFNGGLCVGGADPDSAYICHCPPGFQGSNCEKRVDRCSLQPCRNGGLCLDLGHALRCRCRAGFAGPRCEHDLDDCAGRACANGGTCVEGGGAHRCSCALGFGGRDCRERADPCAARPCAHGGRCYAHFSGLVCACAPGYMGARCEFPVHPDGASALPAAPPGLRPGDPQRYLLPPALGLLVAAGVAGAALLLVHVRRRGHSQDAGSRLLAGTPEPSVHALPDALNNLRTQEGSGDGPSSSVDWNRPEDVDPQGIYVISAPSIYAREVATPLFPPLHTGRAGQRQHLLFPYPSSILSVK
UniProt P08174, residues 35-353: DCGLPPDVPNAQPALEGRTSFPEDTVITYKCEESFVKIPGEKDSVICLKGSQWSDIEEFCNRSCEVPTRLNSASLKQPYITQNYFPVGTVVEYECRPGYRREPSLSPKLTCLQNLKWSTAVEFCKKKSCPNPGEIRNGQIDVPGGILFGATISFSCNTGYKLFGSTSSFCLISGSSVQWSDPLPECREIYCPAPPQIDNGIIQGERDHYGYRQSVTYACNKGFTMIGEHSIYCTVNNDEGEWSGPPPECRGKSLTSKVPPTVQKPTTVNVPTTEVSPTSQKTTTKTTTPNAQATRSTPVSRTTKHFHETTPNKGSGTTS
UniProt P11142: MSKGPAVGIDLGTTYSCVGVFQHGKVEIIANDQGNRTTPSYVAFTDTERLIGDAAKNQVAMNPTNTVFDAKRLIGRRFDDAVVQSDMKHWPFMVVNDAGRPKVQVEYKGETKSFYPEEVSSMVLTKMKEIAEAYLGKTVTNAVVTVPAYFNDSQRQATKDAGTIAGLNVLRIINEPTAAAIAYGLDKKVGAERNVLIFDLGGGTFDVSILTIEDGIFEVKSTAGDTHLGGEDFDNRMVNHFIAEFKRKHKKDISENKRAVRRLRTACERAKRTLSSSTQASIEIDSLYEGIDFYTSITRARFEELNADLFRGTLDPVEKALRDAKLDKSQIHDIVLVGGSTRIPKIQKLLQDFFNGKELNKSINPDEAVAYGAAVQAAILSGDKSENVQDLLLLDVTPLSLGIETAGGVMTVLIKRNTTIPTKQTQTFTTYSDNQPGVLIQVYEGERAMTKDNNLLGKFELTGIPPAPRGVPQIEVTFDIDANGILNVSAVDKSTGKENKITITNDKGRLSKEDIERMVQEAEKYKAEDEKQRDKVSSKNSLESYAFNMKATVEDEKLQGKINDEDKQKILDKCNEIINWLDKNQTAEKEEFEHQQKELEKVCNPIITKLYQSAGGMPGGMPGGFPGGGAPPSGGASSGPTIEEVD
UniProt P10321, residues 25-366: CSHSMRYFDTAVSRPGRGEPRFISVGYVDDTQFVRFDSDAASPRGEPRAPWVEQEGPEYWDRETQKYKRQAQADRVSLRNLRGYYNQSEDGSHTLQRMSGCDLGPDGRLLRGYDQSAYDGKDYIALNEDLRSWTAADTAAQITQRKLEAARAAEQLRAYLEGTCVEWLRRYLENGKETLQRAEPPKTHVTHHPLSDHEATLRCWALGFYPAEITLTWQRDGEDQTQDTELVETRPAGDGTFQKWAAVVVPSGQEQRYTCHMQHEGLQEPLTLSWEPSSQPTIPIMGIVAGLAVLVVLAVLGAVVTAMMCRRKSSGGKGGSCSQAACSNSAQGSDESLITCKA

Molecular target: delta-like canonical Notch ligand 3 (human (endogenous in MKN45)) (UniProt Q9NYJ7)
Assay: affinity purification with mass spectrometry; DLL3 antibody (MAB4315) added to 500 ug MKN45 cell lysate, 4°C overnight; captured on protein A and protein G agarose; washed three times with ice-cold lysis buffer; proteins of the IgG control group and common pollutants excluded

Row | Molecule | binding
1 | complement decay-accelerating factor (from UniProt P08174 35-353) | binds
2 | heat shock cognate 71 kDa protein (from UniProt P11142 1-646) | binds
3 | human leukocyte antigen class I histocompatibility antigen, C (from UniProt P10321 25-366) | binds
4 | histocompatibility minor 13 (protein, UniProt Q8TCT9 1-377) MDSALSDPHNGSAEAGGPTNSTTRPPSTPEGIALAYGSLLLMALLPIFFGALRSVRCARGKNASDMPETITSRDAARFPIIASCTLLGLYLFFKIFSQEYINLLLSMYFFVLGILALSHTISPFMNKFFPASFPNRQYQLLFTQGSGENKEEIINYEFDTKDLVCLGLSSIVGVWYLLRKHWIANNLFGLAFSLNGVELLHLNNVSTGCILLGGLFIYDVFWVFGTNVMVTVAKSFEAPIKLVFPQDLLEKGLEANNFAMLGLGDVVIPGIFIALLLRFDISLKKNTHTYFYTSFAAYIFGLGLTIFIMHIFKHAQPALLYLVPACIGFPVLVALAKGEVTEMFSYEESNPKDPAAVTESKEGTEASASKGLEKKEK | binds
